Values quoted from earlier work as cited in patent US20100183687A1, “PROCESS FOR PREPARING PARTICLES OF OPIOIDS AND COMPOSITIONS PRODUCED THEREBY” (priority 2009, published 2010).
Some entries share one result that the patent states for a list of compounds. For at least one compound, name, drawing or mass did not settle the structure.

Settings: water

## COc1ccc2c3c1O[C@H]1C(=O)CC[C@@]4(O)[C@@H](C2)N(C)CC[C@]314 [oxycodone base]
  solubility at neutral pH: less than 1 mg/ml
